Test results published in article PMC5421940.
No constants are given. Whether binding was seen depends on the method and setting. In cells and extracts the contact can be indirect. Binding calls can cover weak binding; strength is not graded here. Where a sequence is shown, tags or fusion partners need not be part of it.

Target: GFP-MCPyV tAg N100A (Merkel cell polyomavirus)
Assay: co-IP

B1: HA-PP4R1 (expressed in cells) (protein, UniProt Q8TF05 1-950)
chain: MADLSLLQEDLQEDADGFGVDDYSSESDVIIIPSALDFVSQDEMLTPLGRLDKYAASENIFNRQMVARSLLDTLREVCDDERDCIAVLERISRLADDSEPTVRAELMEQVPHIALFCQENRPSIPYAFSKFLLPIVVRYLADQNNQVRKTSQAALLALLEQELIERFDVETKVCPVLIELTAPDSNDDVKTEAVAIMCKMAPMVGKDITERLILPRFCEMCCDCRMFHVRKVCAANFGDICSVVGQQATEEMLLPRFFQLCSDNVWGVRKACAECFMAVSCATCQEIRRTKLSALFINLISDPSRWVRQAAFQSLGPFISTFANPSSSGQYFKEESKSSEEMSVENKNRTRDQEAPEDVQVRPEDTPSDLSVSNSSVILENTMEDHAAEASGKPLGEISVPLDSSLLCTLSSESHQEAASNENDKKPGNYKSMLRPEVGTTSQDSALLDQELYNSFHFWRTPLPEIDLDIELEQNSGGKPSPEGPEEESEGPVPSSPNITMATRKELEEMIENLEPHIDDPDVKAQVEVLSAALRASSLDAHEETISIEKRSDLQDELDINELPNCKINQEDSVPLISDAVENMDSTLHYIHSDSDLSNNSSFSPDEERRTKVQDVVPQALLDQYLSMTDPSRAQTVDTEIAKHCAYSLPGVALTLGRQNWHCLRETYETLASDMQWKVRRTLAFSIHELAVILGDQLTAADLVPIFNGFLKDLDEVRIGVLKHLHDFLKLLHIDKRREYLYQLQEFLVTDNSRNWRFRAELAEQLILLLELYSPRDVYDYLRPIALNLCADKVSSVRWISYKLVSEMVKKLHAATPPTFGVDLINELVENFGRCPKWSGRQAFVFVCQTVIEDDCLPMDQFAVHLMPHLLTLANDRVPNVRVLLAKTLRQTLLEKDYFLASASCHQEAVEQTIMALQMDRDSDVKYFASIHPASTKISEDAMSTASSTY
B1 was tested. Which binding did it give?
The binding was “binds”.
